From PubChem BioAssay (NCATS)
Inconclusive means that the source gave no clear call. Such entries were picked first, then a sample of the others. Potencies beside an inconclusive call are fits to weak or partial responses and may not hold up. Active and inactive are the calls of the source. Calls come from the whole dose curve; as a rule, active = well fitted cell-killing curve with a large enough effect; inconclusive = small, poorly fitted or top-dose-only effect, or effect the other way; inactive = no such curve, though single readings can be large or run the other way.

experiment: Quantitative High-Throughput drug screen in 47 multiple myeloma cell lines against the NCATS MIPE library collection: KMS26_JCRB cell viability assay (AID 1918975); details: KMS26 myeloma cells viability, CellTiter-Glo ATP, 48 h; viability (% of DMSO): at 45.8 µM (top of the series); note: nearly all actives have a fitted effect of over 45% in size
Source text: PI: Beverly A. Mock Ph.D.
Laboratory of Cancer Biology and Genetics,
Center for Cancer Research, National Cancer Institute,
National Institute of Health, Bethesda, Maryland
Drug resistance and disease progression are common in multiple myeloma (MM) patients, underscoring the need for new therapeutic combinations. […] We hypothesized that effective combinations would reduce MYC expression and enhance p16 activity. […] These preclinical data identify potentially useful drug combinations for evaluation in drug-resistant MM and reveal potential mechanisms of combined drug sensitivity.
Described herein is the primary MIPE qHTS used to cherrypick compounds. Validated compounds were then further tested for potential synergistic activiy.
[1] Peat TJ, Gaikwad SM, Dubois W, Gyabaah-Kessie N, Zhang S, Gorjifard S, Phyo Z, Andres M, Hughitt VK, Simpson RM, Miller MA, Girvin AT, Taylor A, Williams D, D'Antonio N, Zhang Y, Rajagopalan A, Flietner E, Wilson K, Zhang X, Shinn P, Klumpp-Thomas C, McKnight C, Itkin Z, Chen L, Kazandijian D, Zhang J, Michalowski AM, Simmons JK, Keats J, Thomas CJ, Mock BA. Drug combinations identified by high-throughput screening promote cell cycle transition and upregulate Smad pathways in myeloma. Cancer Lett. 2023 Aug 1;568:216284. doi: 10.1016/j.canlet.2023.216284. Epub 2023 Jun 24. PMID: 37356470; PMCID: PMC10408729.
SEQUENCE No. (e.g., 1, 2, 3, etc.); […] (e.g., Cells, Incubation, Reagent, etc.); VALUE and DESCRIPTION.
1; Cells; 5 uL; white, solid bottom 1536-well Greiner assay plate.
2; Compounds; 23 nL; Kalypsis pin tool (Wako USA) equipped with a 1536-well pin head to transfer to the assay plates.
3; Incubation; 48 hours; 37C incubation.
4; Reagent;5uL; CellTiter Glo (Promega).
5; Detector; 425V; Luminescence; Viewlux PerkinElmer.
NOTES (numbers refer to Sequence numbers above)
1. The cell-based screening methods employed in this study were like those previously published. Briefly, the corresponding myeloma cell lines were screened in 1,536-well plates with 500 cells, 5-uL per well for inhibition of cell viability (assessed by measuring ATP levels with CellTiterGlo).
2. NCATS MIPE 4.0 library of approved and investigational drugs were added using the Kalypsis pin tool. Wells treated with DMSO only for 100% viability and media only wells for 0% viability were used as controls.
3. The assay plates were covered and incubated for 48 hours in a 37C, 5% CO2 incubator with controlled humidity.
4. After 48 hours, CellTilter-GloTM luminescent substrate mix (Promega) reagent was added to the assay plate and plates we incubated for 5 min at room temperature.
5. Signal was measured as median relative luminescence units on a ViewLux (PerkinElmer) multiplate reader.
[1] Heske CM, Davis MI, Baumgart JT, Wilson K, Gormally MV, Chen L, Zhang X, Ceribelli M, Duveau DY, Guha R, Ferrer M, Arnaldez FI, Ji J, Tran HL, Zhang Y, Mendoza A, Helman LJ, Thomas CJ. Matrix Screen Identifies Synergistic Combination of PARP Inhibitors and Nicotinamide Phosphoribosyltransferase (NAMPT) Inhibitors in Ewing Sarcoma. Clin Cancer Res. 2017 Dec 1;23(23):7301-7311. doi: 10.1158/1078-0432.CCR-17-1121. Epub 2017 Sep 12. PMID: 28899971; PMCID: PMC6636827.
Potency is the fitted concentration of half-maximal effect.

Compound | Potency | viability (% of DMSO)
COc1cc(C)c(Sc2cnc(NC(=O)c3ccc(CNC(C)C(C)(C)C)cc3)s2)cc1C(=O)N1CCN(C(C)=O)CC1 (stereo not given) | active: 16.6 µM | 
O=NN(CCCl)C(=O)NC1CCCCC1 |  | inactive: 148%
Cc1cnc(-c2cnc(NCCNc3ccc(C#N)cn3)nc2-c2ccc(Cl)cc2Cl)[nH]1 | inconclusive: 23.5 µM [cytotoxic, partial curve, poor fit] | 
C[C@@H]1CN(CC(=O)Nc2ccc3c(c2)Cc2cccc(-c4cc(=O)cc(N5CCOCC5)o4)c2S3)C[C@H](C)O1 | active: 20.9 µM | 
CC(=O)NC(C)c1ccc(Oc2ccc(OC(C)C)cc2)cc1 (stereo not given) | inconclusive: 18.7 µM [cytotoxic, partial curve, poor fit] | 
CN(C)CC(C)(C)CNc1nn2c(-c3ccccc3)nnc2cc1C1CCC1 | inconclusive: 6.62 µM [cytotoxic, partial curve, poor fit] | 
COC(=O)Nc1nc2ccc(S(=O)c3ccccc3)cc2[nH]1 (stereo not given) |  | inactive: 156%
CCN(CC)CCn1c(=O)c(Cc2ccc(OC)cc2)nc2ccccc21 |  | inactive: 128%
CS(=O)(=O)c1ccc(-c2cnc(N)c(C(=O)Nc3ccccc3)n2)cc1 | inconclusive: 37.2 µM [cytotoxic, partial curve, poor fit] | 
CC(C)Cn1cnc2c(N)nc3ccccc3c21 | inconclusive: 18.7 µM [cytotoxic, partial curve, poor fit] | 
CC1(C)CNc2cc(NC(=O)c3cccnc3NCc3ccncc3)ccc21 | inconclusive: 0.0017 µM [rising, full curve, poor fit] | 
Nc1cccc(-c2cc3c(Oc4cccc(O)c4)ncnc3[nH]2)c1 |  | inconclusive: 122% [cytotoxic]
NC(=O)c1ccc(-c2nc(-c3ccc4c(c3)OCO4)c(-c3ccccn3)[nH]2)cc1 | inconclusive: 4.18 µM [cytotoxic, full curve, poor fit] | 
CN[C@@H]1C[C@H]2O[C@@](C)([C@H]1OC)n1c3ccccc3c3c4c(c5c6ccccc6n2c5c31)C(=O)N[C@H]4O | active: 1.66 µM | 
O=C(NCc1ccccc1)[C@H](Cc1ccccc1)NC(=O)[C@@H]1O[C@@H]1C(=O)NCCc1ccc(O)cc1 | inconclusive: 0.0012 µM [cytotoxic, full curve, poor fit] | 
CC(O)(C#Cc1ccc2c(c1)N(c1nc(N)ncc1Cl)CC2)c1nccs1 (stereo not given) | inconclusive: 14.8 µM [cytotoxic, partial curve, poor fit] | 
COC(=O)C=CC(=O)OC | inconclusive: 18.7 µM [cytotoxic, partial curve, poor fit] | 
CC[C@H](Nc1ncnc2nc[nH]c12)c1nc2cccc(F)c2c(=O)n1-c1ccccc1 | active: 13.2 µM | 
COc1cc(C(C)C)c2c(c1)S(=O)(=O)N(COc1cc(=O)n3cccc(OCCN4CCCCC4)c3n1)C2=O | inconclusive: 23.5 µM [cytotoxic, single point] | 
COc1cc(C(=O)NS(=O)(=O)c2ccccc2C)ccc1Cc1cn(C)c2ccc(NC(=O)OC3CCCC3)cc12 | active: 16.6 µM | 

Compound | Potency | viability (% of DMSO)
CC(=O)ON=C1C(c2c(O)[nH]c3cc(Br)ccc23)=Nc2ccccc21 | inconclusive: 14.8 µM [cytotoxic, partial curve, poor fit] | 
Cc1c(CCOc2ccc(C(=O)O)cc2)c2cc(Cl)ccc2n1C(c1ccccc1)c1ccccc1 | inconclusive: 8.33 µM [cytotoxic, partial curve, poor fit] | 
Cc1ccccc1C(OCCN(C)C)c1ccccc1 (stereo not given) | inconclusive: 0.0053 µM [rising, full curve, poor fit] | 
CNC(=O)c1cc(Oc2ccc(NC(=O)Nc3cc(C(C)(C)C)nn3-c3ccc4ncccc4c3)c(F)c2)ccn1 | active: 9.35 µM | 
CC(C)c1cc(C(C)C)c(CC(=O)NS(=O)(=O)Oc2c(C(C)C)cccc2C(C)C)c(C(C)C)c1 | active: 26.4 µM | 
CCN(CC)CC#CCOC(=O)C(O)(c1ccccc1)C1CCCCC1 (stereo not given) | inconclusive: 0.0012 µM [cytotoxic, full curve, poor fit] | 
C=C1C(=O)O[C@H]2[C@@H]1CCC(C)=CCC[C@@]1(C)O[C@@H]21 | active: 3.72 µM | 
Cc1cc(Nc2cc(NC(=O)c3c(Cl)cccc3Cl)ccn2)nc(N)n1 | active: 16.6 µM | 
Cc1c(CN2CCN(C(=O)C(C)C)CC2)sc2c(N3CCOCC3)nc(-c3cnc(N)nc3)nc12 | active: 0.264 µM | 
Nc1nc(Cl)nc2c1ncn2[C@H]1C[C@H](O)[C@@H](CO)O1 | inconclusive: 2.64 µM [cytotoxic, partial curve, poor fit] | 
CN1CCc2c(c3ccccc3n2Cc2ccc(C(=O)NO)cc2)C1 | active: 20.9 µM | 
Cn1cncc1[C@@](N)(c1ccc(Cl)cc1)c1ccc2c(c1)c(-c1cccc(Cl)c1)cc(=O)n2C | inconclusive: 20.9 µM [cytotoxic, partial curve, poor fit] | 
Nc1ccn([C@H]2CC[C@@H](CO)O2)c(=O)n1 |  | inactive: 128%
NC(=O)c1cccc2cn(-c3ccc([C@@H]4CCCNC4)cc3)nc12 |  | inconclusive: 89.8% [cytotoxic]
CCC[C@H](NC(=O)C(C#N)=Cc1cccc(Br)n1)c1ccccc1 | active: 1.48 µM | 
C[C@@]12O[C@@H](C[C@]1(O)CO)n1c3ccccc3c3c4c(c5c6ccccc6n2c5c31)CNC4=O | active: 5.9 µM | 
Cc1cnc(NC(=O)Nc2cc(Br)c(C)cc2OC[C@@H]2CNCCO2)cn1 | active: 16.6 µM | 
O=C(O)c1ccc2cc(-c3ccc(O)c(C45CC6CC(CC(C6)C4)C5)c3)ccc2c1 | inconclusive: 37.2 µM [cytotoxic, single point] | 
COc1cc2c(Nc3ccc(Cl)c(Cl)c3F)ncnc2cc1OCC1C[C@@H]2CN(C)C[C@H]2C1 | active: 2.35 µM | 
CCN(c1ccccc1)c1cc(NC)[n+](C)c(C)n1 | inconclusive: 26.4 µM [cytotoxic, single point] | 

3 entries already listed, ordered by SMILES length, smallest number first:
Compound | Potency | viability (% of DMSO)
Cc1ccccc1C(OCCN(C)C)c1ccccc1 (stereo not given) | inconclusive: 0.0053 µM [rising, full curve, poor fit] | 
COc1cc2c(Nc3ccc(Cl)c(Cl)c3F)ncnc2cc1OCC1C[C@@H]2CN(C)C[C@H]2C1 | active: 2.35 µM | 
CNC(=O)c1cc(Oc2ccc(NC(=O)Nc3cc(C(C)(C)C)nn3-c3ccc4ncccc4c3)c(F)c2)ccn1 | active: 9.35 µM | 
